In patent US9309247B2, “2-substituted imidazo[4,5-D]phenanthroline derivatives and their use in the treatment of cancer” (Aptose Biosciences Inc., priority 2013, dated 2016):

Columns and labels:
Format in all cases: cell-based
Conditions in all cases: rank among eight compounds, one = lowest IC50
[1] = test system: Human Burkitt's lymphoma Raji cells; test: Cell growth inhibition assay, Raji
Method: (§1) In this study, compounds 1-8 were screened in vitro against a panel of four mouse lymphoma cell lines and two human lymphoma cell line for cell growth inhibition activity. Following treatment, half maximal inhibitory concentrations (IC50) were determined with the objective of selecting the most efficacious compounds for evaluation of in vitro absorption, distribution, metabolism, and excretion (ADME) screening.
Human Burkitt's lymphoma Raji cells (ATCC CCL-86) were grown in suspension in Roswell Park Memorial Institute (RPMI) 1640 medium supplemented with 10% fetal bovine serum (FBS), 10 mM HEPES KOH pH 7.4, and 2 mM sodium pyruvate at 37° C. in an atmosphere of 5% CO2 in air. Logarithmically growing cells were routinely sub-cultured twice weekly. Briefly, cells were collected by centrifugation, resuspended in pre-warmed media, and diluted 1:10 into a 75 cm^2 flask.
(§2) Cells were subcultured and 4×10^3 cells (in 50 μL) were transferred to each well in a Falcon 96-well tissue culture plate. Exemplary compounds were dissolved in pure dimethyl sulphoxide (DMSO) at a concentration of 10 mM. From this 10 mM stock solution, 12 successive serial dilutions were made in DMSO (2.5 fold dilutions), ranging from 0.52 μM to 10 mM. Using these stock dilutions, 5 μL of each were added to 500 μL of media, and 50 μL of this was added to the cells. The final concentrations being tested ranged from 0.0026 μM to 50 μM. Each concentration was tested in triplicate, and DMSO and untreated cells were also included as controls. After five days of incubation with the compounds, cell viability was determined using the XTT cell proliferation kit (Roche, Cat. No. 11 465 015 001). Following the XTT protocol, 4.5-24 hours after addition of the reagent, the plates were read in a μQuant 96-well plate spectrophotometer (Biotek Instruments Inc.) and the results analyzed to determine the IC50.

[2] = test system: EL4 (mouse, lymphoma); test: Cell growth inhibition assay, EL4
Method: as §1
(§3) Similarly, human Burkitt's lymphoma Ramos cells (ATCC CRL-1596) were grown in suspension in Roswell Park Memorial Institute (RPMI) 1640 medium supplemented with 10% fetal bovine serum (FBS), 10 mM HEPES KOH pH 7.4, and 2 mM sodium pyruvate. Mouse P388D1 (ATCC CCL-46) and WR19L (ATCC TIB-52) cells were grown in suspension in Dulbecco's Modified Eagle Medium (DMEM) with 10% fetal bovine serum (FBS), 10 mM HEPES, and 2 mM sodium pyruvate. Mouse WEHI231 (ATCC CRL-1702) and EL4 (ATCC TIB-39) cells were grown in suspension in DMEM with 10% fetal bovine serum (FBS), 10 mM HEPES KOH pH 7.4, 2 mM sodium pyruvate, and 0.05 mM β-mercaptoethanol. All cells were maintained at 37° C. in an atmosphere of 5% CO2 in air. Logarithmically growing cells were routinely sub-cultured twice weekly. Briefly, cells were collected by centrifugation, resuspended in pre-warmed media, and diluted 1:10 into a 75 cm^2 flask.
as §2

[3] = test system: P388D1 (mouse, lymphoma); test: Cell growth inhibition assay, P388D1
Method: as §1, §3, §2

[4] = test system: human Burkitt's lymphoma Ramos cells; test: Cell growth inhibition assay, Ramos
Method: as §1, §3, §2

[5] = test system: WR19L (mouse, lymphoma); test: Cell growth inhibition assay, WR19L
Method: as §1, §3, §2

[6] = test system: WEHI 231 (mouse, B-cell lymphoma); test: Cell growth inhibition assay, WEHI231
Method: as §1, §3, §2

FC1(F)Oc2ccc(-c3nc4c5cccnc5c5ncccc5c4[nH]3)cc2O1 [Compound 1]
Ranking of efficacy, Raji (hs) [1]: 6
Ranking of efficacy, EL4 (ms) [2]: 6
Ranking of efficacy, P388D1 (ms) [3]: 5
Ranking of efficacy, Ramos (hs) [4]: 8
Ranking of efficacy, WR19L (ms) [5]: 8
Ranking of efficacy, WEHI231 (ms) [6]: 4

FC1(F)Oc2ccc(-c3nc4c5cccnc5c5ncccc5c4[nH]3)cc2O1 [Compound 2]
Ranking of efficacy, Raji (hs) [1]: 7
Ranking of efficacy, EL4 (ms) [2]: 3
Ranking of efficacy, P388D1 (ms) [3]: 7
Ranking of efficacy, Ramos (hs) [4]: 7
Ranking of efficacy, WR19L (ms) [5]: 6
Ranking of efficacy, WEHI231 (ms) [6]: 3

FC1(F)Oc2ccc(-c3nc4c5cccnc5c5ncccc5c4[nH]3)cc2O1 [Compound 3]
Ranking of efficacy, Raji (hs) [1]: 8
Ranking of efficacy, EL4 (ms) [2]: 4
Ranking of efficacy, P388D1 (ms) [3]: 6
Ranking of efficacy, Ramos (hs) [4]: 6
Ranking of efficacy, WR19L (ms) [5]: 7
Ranking of efficacy, WEHI231 (ms) [6]: 2

FC1(F)Oc2ccc(-c3nc4c5cccnc5c5ncccc5c4[nH]3)cc2O1 [Compound 4]
Ranking of efficacy, Raji (hs) [1]: 3
Ranking of efficacy, EL4 (ms) [2]: 7
Ranking of efficacy, P388D1 (ms) [3]: 4
Ranking of efficacy, Ramos (hs) [4]: 3
Ranking of efficacy, WR19L (ms) [5]: 3
Ranking of efficacy, WEHI231 (ms) [6]: 5

FC1(F)Oc2ccc(-c3nc4c5cccnc5c5ncccc5c4[nH]3)cc2O1 [Compound 5]
Ranking of efficacy, Raji (hs) [1]: 4
Ranking of efficacy, EL4 (ms) [2]: 8
Ranking of efficacy, P388D1 (ms) [3]: 8
Ranking of efficacy, Ramos (hs) [4]: 4
Ranking of efficacy, WR19L (ms) [5]: 4
Ranking of efficacy, WEHI231 (ms) [6]: 7

FC1(F)Oc2ccc(-c3nc4c5cccnc5c5ncccc5c4[nH]3)cc2O1 [Compound 6]
Ranking of efficacy, Raji (hs) [1]: 2
Ranking of efficacy, EL4 (ms) [2]: 1
Ranking of efficacy, P388D1 (ms) [3]: 1
Ranking of efficacy, Ramos (hs) [4]: 1
Ranking of efficacy, WR19L (ms) [5]: 1
Ranking of efficacy, WEHI231 (ms) [6]: 2

FC1(F)Oc2ccc(-c3nc4c5cccnc5c5ncccc5c4[nH]3)cc2O1 [Compound 7]
Ranking of efficacy, Raji (hs) [1]: 5
Ranking of efficacy, EL4 (ms) [2]: 5
Ranking of efficacy, P388D1 (ms) [3]: 3
Ranking of efficacy, Ramos (hs) [4]: 5
Ranking of efficacy, WR19L (ms) [5]: 5
Ranking of efficacy, WEHI231 (ms) [6]: 6

FC1(F)Oc2ccc(-c3nc4c5cccnc5c5ncccc5c4[nH]3)cc2O1 [Compound 8]
Ranking of efficacy, Raji (hs) [1]: 1
Ranking of efficacy, EL4 (ms) [2]: 2
Ranking of efficacy, P388D1 (ms) [3]: 2
Ranking of efficacy, Ramos (hs) [4]: 2
Ranking of efficacy, WR19L (ms) [5]: 2
Ranking of efficacy, WEHI231 (ms) [6]: 1
